Assay results: article PMC11729550, “Discovery of indole analogue Tc3 as a potent pyroptosis inducer and identification of its combination strategy against hepatic carcinoma” (Theranostics, 2025)

Assay: Liver microsome metabolic stability assay
Settings: human, microsomes
Experimental: The reaction media contained liver microsomes (0.5 mg/mL), 1.0 mM β-nicotinamide adenine dinucleotide phosphate (β-NADPH), 3 mM MgCl2 phosphate buffer. Microsomal suspensions were pre-incubated with Tc3 for 3 min at 37℃. The reaction was initiated with the addition of β-NADPH and samples were collected at 0, 5, 15, 30 and 60 min. The negative control was excluded of β-NADPH. Midazolam was incubated similarly as a positive control substrate. At each time point, an aliquot was mixed acetonitrile. Samples were centrifuged and then supernatant was mixed with ultrapure water for LC-MS/MS analysis.

Question: Which half-life at 1 μM does the source give for `Cc1ncc2n1-c1ccc(Cl)cc1C(c1ccccc1F)=NC2` [midazolam, reference compound] here?
Answer: 2.9 min
